The subject of series [1] is HEK293T cells. The class given is cell-based.
Series [2] has as its system HEK293T cells. In words: Cell surface localization, HA tag flow cytometry. The class given is cell-based. The settings on record: for Average HA tag %: % HA-tag positive HEK293T cells; for Average HA tag % / Average HA MFI: normalized to SEQ ID NO: 33 control; for Average HA MFI: anti-HA fluorescence intensity; for cell surface localization compared to the parental chimera, HA tag: versus SEQ ID NO: 33. A general note: A flow cytometer gives signals particle by particle.

Consider 6 molecules from patent US20220348635A1, “COMPOSITIONS AND METHODS FOR NEUROLOGICAL DISEASES” (Coda Biotherapeutics, Inc., priority 2019, published 2022).

B1: L131T, S172D in SEQ ID NO: 33: engineered chimeric α7-nAChR/GlyRα1 LGIC receptor: SEQ ID NO: 33 with substitutions L131T and S172D (protein)
chain: MRCSPGGVWLALAASLLHVSLQGEFQRKLYKELVKNYNPLERPVANDSQPLTVYFSLSLLQIMDVDEKNQVLTTNIWLQMSWTDHYLQWNVSEYPGVKTVRFPDGQIWKPDILLYNSADERFDATFHTNVTVNSSGHCQYLPPGIFKSSCPMDLKNFPMDVQTCKLKFGSWDYGGWSLDLQMQEADISGYIPNGEWDLVGIPGKRSERFYECCKEPYPDVTFTVTMRRRMGYYLIQMYIPSLLIVILSWISFWINMDAAPARVGLGITTVLTMTTQSSGSRASLPKVSYVKAIDIWMAVCLLFVFSALLEYAAVNFVSRQHKELLRFRRKRRHHKSPMLNLFQEDEAGEGRFNFSAYGMGPACLQAKDGISVKGANNSNTTNPPPAPSKSPEEMRKLFIQRAKKIDKISRIGFPMAFLIFNMFYWIIYKIVRREDVHNQ
modifications: synthetic sequence of chimeric LGIC
For the molecule B1, in series [1], the “Normalized AB %” value is 32% and the “Normalized AB MFI” value turned out to be 0.75. In series [2], the “Average HA tag %” value amounted to 92%; the “Average HA MFI” value was 0.93; the “cell surface localization compared to the parental chimera, HA tag” value is on record as “comparable localization”.

B2: L131S, S172D in SEQ ID NO: 33: engineered chimeric α7-nAChR/GlyRα1 LGIC receptor: SEQ ID NO: 33 with substitutions L131S and S172D (protein)
chain: MRCSPGGVWLALAASLLHVSLQGEFQRKLYKELVKNYNPLERPVANDSQPLTVYFSLSLLQIMDVDEKNQVLTTNIWLQMSWTDHYLQWNVSEYPGVKTVRFPDGQIWKPDILLYNSADERFDATFHTNVSVNSSGHCQYLPPGIFKSSCPMDLKNFPMDVQTCKLKFGSWDYGGWSLDLQMQEADISGYIPNGEWDLVGIPGKRSERFYECCKEPYPDVTFTVTMRRRMGYYLIQMYIPSLLIVILSWISFWINMDAAPARVGLGITTVLTMTTQSSGSRASLPKVSYVKAIDIWMAVCLLFVFSALLEYAAVNFVSRQHKELLRFRRKRRHHKSPMLNLFQEDEAGEGRFNFSAYGMGPACLQAKDGISVKGANNSNTTNPPPAPSKSPEEMRKLFIQRAKKIDKISRIGFPMAFLIFNMFYWIIYKIVRREDVHNQ
modifications: synthetic sequence of chimeric LGIC
As to B2, in series [1], the “Normalized AB %” value was determined as 48% and the “Normalized AB MFI” value is given as 0.83. Moreover, in series [2], the “Average HA tag %” value is on record as 33% and the “Average HA MFI” value is listed as 0.77.

B3: Y115D, S170T in SEQ ID NO: 33: engineered chimeric α7-nAChR/GlyRα1 LGIC receptor: SEQ ID NO: 33 with substitutions Y115D and S170T (protein)
chain: MRCSPGGVWLALAASLLHVSLQGEFQRKLYKELVKNYNPLERPVANDSQPLTVYFSLSLLQIMDVDEKNQVLTTNIWLQMSWTDHYLQWNVSEYPGVKTVRFPDGQIWKPDILLDNSADERFDATFHTNVLVNSSGHCQYLPPGIFKSSCPMDLKNFPMDVQTCKLKFGTWSYGGWSLDLQMQEADISGYIPNGEWDLVGIPGKRSERFYECCKEPYPDVTFTVTMRRRMGYYLIQMYIPSLLIVILSWISFWINMDAAPARVGLGITTVLTMTTQSSGSRASLPKVSYVKAIDIWMAVCLLFVFSALLEYAAVNFVSRQHKELLRFRRKRRHHKSPMLNLFQEDEAGEGRFNFSAYGMGPACLQAKDGISVKGANNSNTTNPPPAPSKSPEEMRKLFIQRAKKIDKISRIGFPMAFLIFNMFYWIIYKIVRREDVHNQ
modifications: synthetic sequence of chimeric LGIC
In the case of B3, in series [1], the “Normalized AB %” value amounted to 17% and the “Normalized AB MFI” value was determined as 0.64. In addition, in series [2], the “Average HA tag %” value is 0% and the “Average HA MFI” value was 0.80.

B4: L131D, S172D in SEQ ID NO: 33: engineered chimeric α7-nAChR/GlyRα1 LGIC receptor: SEQ ID NO: 33 with substitutions L131D and S172D (protein)
chain: MRCSPGGVWLALAASLLHVSLQGEFQRKLYKELVKNYNPLERPVANDSQPLTVYFSLSLLQIMDVDEKNQVLTTNIWLQMSWTDHYLQWNVSEYPGVKTVRFPDGQIWKPDILLYNSADERFDATFHTNVDVNSSGHCQYLPPGIFKSSCPMDLKNFPMDVQTCKLKFGSWDYGGWSLDLQMQEADISGYIPNGEWDLVGIPGKRSERFYECCKEPYPDVTFTVTMRRRMGYYLIQMYIPSLLIVILSWISFWINMDAAPARVGLGITTVLTMTTQSSGSRASLPKVSYVKAIDIWMAVCLLFVFSALLEYAAVNFVSRQHKELLRFRRKRRHHKSPMLNLFQEDEAGEGRFNFSAYGMGPACLQAKDGISVKGANNSNTTNPPPAPSKSPEEMRKLFIQRAKKIDKISRIGFPMAFLIFNMFYWIIYKIVRREDVHNQ
modifications: synthetic sequence of chimeric LGIC
As to B4, in series [1], the “Normalized AB %” value was 45% and the “Normalized AB MFI” value turned out to be 0.88. In series [2], the “Average HA tag %” value came to 58% and the “Average HA MFI” value is listed as 0.82.

B5: Y115D, L131Q in SEQ ID NO: 33: CR-11 (Chemogenic receptor-11): SEQ ID NO: 33 with substitutions Y115D and L131Q (protein)
chain: MRCSPGGVWLALAASLLHVSLQGEFQRKLYKELVKNYNPLERPVANDSQPLTVYFSLSLLQIMDVDEKNQVLTTNIWLQMSWTDHYLQWNVSEYPGVKTVRFPDGQIWKPDILLDNSADERFDATFHTNVQVNSSGHCQYLPPGIFKSSCPMDLKNFPMDVQTCKLKFGSWSYGGWSLDLQMQEADISGYIPNGEWDLVGIPGKRSERFYECCKEPYPDVTFTVTMRRRMGYYLIQMYIPSLLIVILSWISFWINMDAAPARVGLGITTVLTMTTQSSGSRASLPKVSYVKAIDIWMAVCLLFVFSALLEYAAVNFVSRQHKELLRFRRKRRHHKSPMLNLFQEDEAGEGRFNFSAYGMGPACLQAKDGISVKGANNSNTTNPPPAPSKSPEEMRKLFIQRAKKIDKISRIGFPMAFLIFNMFYWIIYKIVRREDVHNQ
modifications: synthetic sequence of chimeric LGIC
With B5, in series [1], the “Normalized AB %” value is given as 35% and the “Normalized AB MFI” value was determined as 0.72. Moreover, in series [2], the “Average HA tag %” value was 62% and the “Average HA MFI” value is given as 0.76.

B6: Y115D, L131E in SEQ ID NO: 33: engineered chimeric α7-nAChR/GlyRα1 LGIC receptor: SEQ ID NO: 33 with substitutions Y115D and L131E (protein)
chain: MRCSPGGVWLALAASLLHVSLQGEFQRKLYKELVKNYNPLERPVANDSQPLTVYFSLSLLQIMDVDEKNQVLTTNIWLQMSWTDHYLQWNVSEYPGVKTVRFPDGQIWKPDILLDNSADERFDATFHTNVEVNSSGHCQYLPPGIFKSSCPMDLKNFPMDVQTCKLKFGSWSYGGWSLDLQMQEADISGYIPNGEWDLVGIPGKRSERFYECCKEPYPDVTFTVTMRRRMGYYLIQMYIPSLLIVILSWISFWINMDAAPARVGLGITTVLTMTTQSSGSRASLPKVSYVKAIDIWMAVCLLFVFSALLEYAAVNFVSRQHKELLRFRRKRRHHKSPMLNLFQEDEAGEGRFNFSAYGMGPACLQAKDGISVKGANNSNTTNPPPAPSKSPEEMRKLFIQRAKKIDKISRIGFPMAFLIFNMFYWIIYKIVRREDVHNQ
modifications: synthetic sequence of chimeric LGIC
Consider B6, for which, in series [1], the “Normalized AB %” value is given as 73% and the “Normalized AB MFI” value is reported as 0.90. The “cell surface localization compared to the parental chimera, α-bungarotoxin” value in series [1] (versus SEQ ID NO: 33) is “comparable localization”. In addition, in series [2], the “Average HA tag %” value is 87%; the “Average HA MFI” value is given as 0.92; the “cell surface localization compared to the parental chimera, HA tag” value is on record as “comparable localization”.
